These are yes or no findings as the source states them, for the method shown. Some entries that bind do so weakly or less than the wild type. For some assays here: Sequences can lack the tags named with a protein.

Amino acid sequences for entries named in this document (tags omitted). Residues count along the entry.
UniProt Q62108, residues 160-246: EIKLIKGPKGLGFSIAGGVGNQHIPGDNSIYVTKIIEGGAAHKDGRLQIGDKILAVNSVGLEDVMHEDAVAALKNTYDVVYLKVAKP

Assay [1] addresses PDZ2 domain of PSD-95 (UniProt Q62108). In words: affinity chromatography on PSD-95 PDZ2 resin, SIESDV peptide elution, SDS-PAGE.
For assay [2] the target is unchanged. The experiment in a line: free SIESDV peptide bound to eluted PSD-95 PDZ2, removed by buffer exchange.

Turning to EKLSSIESDV (peptide, not shown: large carriers) [THX-…], the binding result with PDZ2 domain of PSD-95 [1] was “binds”.
On the same count and under the same terms, for EKLSSIESDV (peptide, not shown: a dimerising Fc or GST) [GST-…] the value was “binds”.
Turning to SIESDV [SIESDV peptide], the binding entry with PDZ2 domain of PSD-95 [2] is reported as “binds”.
SSIESDV (peptide, not shown: large carriers) [LacZ with C-terminal Type A PDZ affinity tag (seven C-terminal amino acids of the NR2B tail)]: the binding entry in the assay with PDZ2 domain of PSD-95 [1] is listed as “binds”.
Turning to SIESDV (peptide, not shown: a dimerising Fc or GST) [GST-SIESDV], the binding result in the assay with PDZ2 domain of PSD-95 [1] is “binds”.
On to SIESDV (peptide, not shown: large carriers) [THX-SIESDV], for which the binding result in the assay with PDZ2 domain of PSD-95 [1] is on record as “binds”.
On the same count and under the same terms, as for SSIESDV (peptide, not shown: a dimerising Fc or GST) [GST-SSIESDV], the entry is “binds”; as for IESDV (peptide, not shown: a dimerising Fc or GST) [GST-IESDV], “binds”; as for SSIESDV (peptide, not shown: large carriers) [DasherGFP with C-terminal Type A PDZ affinity tag (seven C-terminal amino acids of the NR2B tail)], “binds”.
Same read-out and setting: for SSIESDV (peptide, not shown: large carriers) [THX-SSIESDV] the value was “binds”.
Still for that read-out and setting: as for IESDV (peptide, not shown: large carriers) [THX-IESDV], the entry is “binds”.

Source of the values: US20140329706A1, “AFFINITY TAGS, AND RELATED AFFINITY LIGANDS, ENGINEERED PROTEINS, MODIFIED SUPPORTS, COMPOSITIONS, METHODS AND SYSTEMS” (CALIFORNIA INSTITUTE OF TECHNOLOGY, priority 2013, published 2014).
